The values that follow come from article PMC1447668, “Foxp3 Represses Retroviral Transcription by Targeting Both NF-κB and CREB Pathways” (PLoS Pathogens, 2006).

Chains of the proteins cited; added tags and fusions are not shown.
UniProt Q09472: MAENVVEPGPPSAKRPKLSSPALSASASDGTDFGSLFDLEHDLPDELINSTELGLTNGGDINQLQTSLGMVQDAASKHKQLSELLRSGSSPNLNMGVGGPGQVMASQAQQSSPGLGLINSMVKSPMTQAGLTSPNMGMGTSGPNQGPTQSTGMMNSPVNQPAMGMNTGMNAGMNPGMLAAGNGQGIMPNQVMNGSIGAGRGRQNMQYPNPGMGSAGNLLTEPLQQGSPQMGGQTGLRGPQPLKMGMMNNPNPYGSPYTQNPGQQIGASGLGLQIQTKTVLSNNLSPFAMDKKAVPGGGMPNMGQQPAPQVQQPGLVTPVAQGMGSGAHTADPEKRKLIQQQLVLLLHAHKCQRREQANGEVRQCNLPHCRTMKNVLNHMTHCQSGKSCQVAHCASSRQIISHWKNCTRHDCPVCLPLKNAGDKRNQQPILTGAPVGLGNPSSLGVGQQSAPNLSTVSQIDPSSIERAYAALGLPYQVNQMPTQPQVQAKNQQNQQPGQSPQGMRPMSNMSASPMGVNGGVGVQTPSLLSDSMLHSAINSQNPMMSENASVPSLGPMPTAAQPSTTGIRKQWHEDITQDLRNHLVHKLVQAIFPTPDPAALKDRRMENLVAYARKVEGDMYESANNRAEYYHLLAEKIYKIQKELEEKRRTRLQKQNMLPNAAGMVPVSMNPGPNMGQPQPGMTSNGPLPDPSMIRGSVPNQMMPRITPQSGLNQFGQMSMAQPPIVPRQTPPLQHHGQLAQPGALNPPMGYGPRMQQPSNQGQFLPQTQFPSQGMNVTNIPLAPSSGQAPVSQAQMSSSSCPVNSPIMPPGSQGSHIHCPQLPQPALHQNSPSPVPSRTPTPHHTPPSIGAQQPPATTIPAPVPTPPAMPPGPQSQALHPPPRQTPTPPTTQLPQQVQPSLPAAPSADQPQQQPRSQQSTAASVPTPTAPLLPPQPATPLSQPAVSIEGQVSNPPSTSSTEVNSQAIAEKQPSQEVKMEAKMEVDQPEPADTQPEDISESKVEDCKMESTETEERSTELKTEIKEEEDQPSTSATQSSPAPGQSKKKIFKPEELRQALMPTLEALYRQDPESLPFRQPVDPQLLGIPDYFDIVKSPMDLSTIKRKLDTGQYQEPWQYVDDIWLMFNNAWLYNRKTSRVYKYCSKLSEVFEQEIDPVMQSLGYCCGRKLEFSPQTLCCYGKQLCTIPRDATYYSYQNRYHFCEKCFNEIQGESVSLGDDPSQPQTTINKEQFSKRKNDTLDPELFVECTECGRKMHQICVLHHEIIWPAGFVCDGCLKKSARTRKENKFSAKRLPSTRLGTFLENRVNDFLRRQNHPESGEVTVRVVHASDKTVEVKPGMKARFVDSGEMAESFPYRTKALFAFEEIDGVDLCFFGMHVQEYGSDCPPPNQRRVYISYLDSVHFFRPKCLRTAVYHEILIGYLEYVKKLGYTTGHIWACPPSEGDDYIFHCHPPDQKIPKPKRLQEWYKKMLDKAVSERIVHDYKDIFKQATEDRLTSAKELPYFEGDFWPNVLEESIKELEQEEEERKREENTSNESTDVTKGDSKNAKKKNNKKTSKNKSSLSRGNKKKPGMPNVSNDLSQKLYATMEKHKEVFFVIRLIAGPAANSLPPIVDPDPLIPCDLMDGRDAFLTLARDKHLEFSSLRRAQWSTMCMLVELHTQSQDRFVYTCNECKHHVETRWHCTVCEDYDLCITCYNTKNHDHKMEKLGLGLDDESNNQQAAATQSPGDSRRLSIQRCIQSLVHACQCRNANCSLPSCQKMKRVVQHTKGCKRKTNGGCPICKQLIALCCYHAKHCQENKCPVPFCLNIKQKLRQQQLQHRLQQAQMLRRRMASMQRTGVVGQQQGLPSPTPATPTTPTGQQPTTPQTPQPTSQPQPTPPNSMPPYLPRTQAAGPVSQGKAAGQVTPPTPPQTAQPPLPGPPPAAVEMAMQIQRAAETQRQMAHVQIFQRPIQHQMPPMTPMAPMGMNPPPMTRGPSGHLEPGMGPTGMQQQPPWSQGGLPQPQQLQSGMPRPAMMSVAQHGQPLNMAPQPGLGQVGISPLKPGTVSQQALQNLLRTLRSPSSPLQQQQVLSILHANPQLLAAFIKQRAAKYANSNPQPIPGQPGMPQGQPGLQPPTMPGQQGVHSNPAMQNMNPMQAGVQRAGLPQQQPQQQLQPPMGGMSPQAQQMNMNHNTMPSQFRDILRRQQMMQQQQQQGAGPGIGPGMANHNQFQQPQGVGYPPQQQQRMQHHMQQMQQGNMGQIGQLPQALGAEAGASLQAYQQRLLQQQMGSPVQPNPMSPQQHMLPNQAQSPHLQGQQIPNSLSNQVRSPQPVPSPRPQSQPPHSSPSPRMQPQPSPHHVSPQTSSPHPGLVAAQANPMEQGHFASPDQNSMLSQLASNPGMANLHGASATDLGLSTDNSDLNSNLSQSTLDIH

This assay addresses coactivator protein p300-HA (UniProt Q09472). The assay can be described thus: co-IP; whole-cell extracts (RIPA buffer) of HEK 293T cells co-transfected with Foxp3 and p300-HA; precipitated with anti-HA monoclonal antibody and protein A/G plus-agarose overnight, washed four times with RIPA; blotted with anti-Foxp3 (ab10563).

No constants are given. Whether binding was seen depends on the method and setting. In cells and extracts the contact can be indirect. Some binding calls cover weakened binding; strength is not graded here.

B1: human Foxp3 (natural protein, UniProt Q9BZS1 1-431, looked up)
chain: MPNPRPGKPSAPSLALGPSPGASPSWRAAPKASDLLGARGPGGTFQGRDLRGGAHASSSSLNPMPPSQLQLPTLPLVMVAPSGARLGPLPHLQALLQDRPHFMHQLSTVDAHARTPVLQVHPLESPAMISLTPPTTATGVFSLKARPGLPPGINVASLEWVSREPALLCTFPNPSAPRKDSTLSAVPQSSYPLLANGVCKWPGCEKVFEEPEDFLKHCQADHLLDEKGRAQCLLQREMVQSLEQQLVLEKEKLSAMQAHLAGKMALTKASSVASSDKGSCCIVAAGSQGPVVPAWSGPREAPDSLFAVRRHLWGSHGNSTFPEFLHNMDYFKFHNMRPPFTYATLIRWAILEAPEKQRTLNEIYHWFTRMFAFFRNHPATWKNAIRHNLSLHKCFVRVESEKGAVWTVDELEFRKKRSQRPSRCSNPTPGP
Turning to B1, the binding entry is listed as “binds”.
